From the supplement of paper PMC10849652
The list shows a part of the results.

Chains of the proteins cited; added tags and fusions are not shown. Lines headed by an entry give the natural chain unless they say otherwise; changes in a name come on top.
UniProt Q8IWZ3: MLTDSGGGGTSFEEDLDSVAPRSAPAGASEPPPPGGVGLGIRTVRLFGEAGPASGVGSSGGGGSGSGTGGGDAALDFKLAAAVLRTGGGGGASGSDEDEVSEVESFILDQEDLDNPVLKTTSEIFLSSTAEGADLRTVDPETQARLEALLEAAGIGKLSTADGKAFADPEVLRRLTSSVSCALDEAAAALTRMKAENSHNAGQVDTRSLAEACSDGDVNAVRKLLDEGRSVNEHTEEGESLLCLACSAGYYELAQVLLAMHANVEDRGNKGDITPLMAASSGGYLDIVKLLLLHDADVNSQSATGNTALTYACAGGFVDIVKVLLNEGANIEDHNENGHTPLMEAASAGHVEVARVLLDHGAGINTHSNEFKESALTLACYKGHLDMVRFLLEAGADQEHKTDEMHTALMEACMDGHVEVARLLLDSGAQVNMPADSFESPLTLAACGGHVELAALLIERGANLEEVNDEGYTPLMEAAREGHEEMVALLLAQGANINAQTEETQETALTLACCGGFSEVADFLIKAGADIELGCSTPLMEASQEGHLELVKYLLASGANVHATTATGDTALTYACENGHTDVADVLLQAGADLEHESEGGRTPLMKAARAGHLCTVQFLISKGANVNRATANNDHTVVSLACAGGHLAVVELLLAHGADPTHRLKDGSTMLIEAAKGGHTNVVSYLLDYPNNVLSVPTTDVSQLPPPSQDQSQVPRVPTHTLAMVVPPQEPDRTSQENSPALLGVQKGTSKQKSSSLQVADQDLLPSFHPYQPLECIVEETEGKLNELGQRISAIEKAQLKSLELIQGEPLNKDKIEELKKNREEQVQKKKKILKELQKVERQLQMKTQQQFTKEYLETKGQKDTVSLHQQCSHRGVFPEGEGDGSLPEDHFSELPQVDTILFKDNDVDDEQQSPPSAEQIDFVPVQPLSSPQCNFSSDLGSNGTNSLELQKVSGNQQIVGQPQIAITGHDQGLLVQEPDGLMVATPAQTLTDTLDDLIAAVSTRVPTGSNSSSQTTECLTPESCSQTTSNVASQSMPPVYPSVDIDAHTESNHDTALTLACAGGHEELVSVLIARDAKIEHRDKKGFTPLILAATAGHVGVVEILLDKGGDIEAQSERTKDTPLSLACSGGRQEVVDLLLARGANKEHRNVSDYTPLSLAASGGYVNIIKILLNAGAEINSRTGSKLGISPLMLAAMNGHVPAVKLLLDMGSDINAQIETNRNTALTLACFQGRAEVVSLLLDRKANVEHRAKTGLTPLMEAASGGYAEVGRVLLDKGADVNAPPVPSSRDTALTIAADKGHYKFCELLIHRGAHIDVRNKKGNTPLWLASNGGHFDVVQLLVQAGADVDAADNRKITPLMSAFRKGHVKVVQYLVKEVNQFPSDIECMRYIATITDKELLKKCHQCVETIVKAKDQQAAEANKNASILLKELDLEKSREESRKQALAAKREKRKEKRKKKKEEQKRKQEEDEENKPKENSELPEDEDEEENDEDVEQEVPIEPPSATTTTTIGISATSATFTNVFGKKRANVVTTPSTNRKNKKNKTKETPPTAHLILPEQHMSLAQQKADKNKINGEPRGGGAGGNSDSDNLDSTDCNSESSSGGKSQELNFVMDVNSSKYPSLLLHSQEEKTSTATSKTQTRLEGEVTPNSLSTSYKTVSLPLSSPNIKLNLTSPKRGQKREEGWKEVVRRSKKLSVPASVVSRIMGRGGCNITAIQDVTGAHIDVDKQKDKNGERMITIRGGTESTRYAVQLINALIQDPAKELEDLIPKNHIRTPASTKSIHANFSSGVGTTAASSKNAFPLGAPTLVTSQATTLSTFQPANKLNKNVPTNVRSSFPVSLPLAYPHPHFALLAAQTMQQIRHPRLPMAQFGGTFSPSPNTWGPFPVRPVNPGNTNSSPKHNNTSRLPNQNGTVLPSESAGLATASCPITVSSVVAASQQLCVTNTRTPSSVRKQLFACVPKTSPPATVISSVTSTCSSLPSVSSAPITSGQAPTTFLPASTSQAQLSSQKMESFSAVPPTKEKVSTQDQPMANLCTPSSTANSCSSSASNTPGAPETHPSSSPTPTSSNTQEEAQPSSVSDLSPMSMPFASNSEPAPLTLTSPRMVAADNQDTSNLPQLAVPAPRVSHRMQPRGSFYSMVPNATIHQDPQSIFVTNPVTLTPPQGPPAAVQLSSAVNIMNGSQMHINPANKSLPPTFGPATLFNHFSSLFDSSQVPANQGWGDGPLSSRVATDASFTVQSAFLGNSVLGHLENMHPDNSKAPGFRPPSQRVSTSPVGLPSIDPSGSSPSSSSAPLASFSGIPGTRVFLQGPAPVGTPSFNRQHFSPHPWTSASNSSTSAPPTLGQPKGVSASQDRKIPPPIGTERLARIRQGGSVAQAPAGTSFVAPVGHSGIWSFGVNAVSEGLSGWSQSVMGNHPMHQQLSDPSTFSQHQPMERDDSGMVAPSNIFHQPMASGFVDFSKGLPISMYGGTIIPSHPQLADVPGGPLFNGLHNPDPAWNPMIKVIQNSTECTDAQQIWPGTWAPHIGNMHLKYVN
UniProt Q9BXS5: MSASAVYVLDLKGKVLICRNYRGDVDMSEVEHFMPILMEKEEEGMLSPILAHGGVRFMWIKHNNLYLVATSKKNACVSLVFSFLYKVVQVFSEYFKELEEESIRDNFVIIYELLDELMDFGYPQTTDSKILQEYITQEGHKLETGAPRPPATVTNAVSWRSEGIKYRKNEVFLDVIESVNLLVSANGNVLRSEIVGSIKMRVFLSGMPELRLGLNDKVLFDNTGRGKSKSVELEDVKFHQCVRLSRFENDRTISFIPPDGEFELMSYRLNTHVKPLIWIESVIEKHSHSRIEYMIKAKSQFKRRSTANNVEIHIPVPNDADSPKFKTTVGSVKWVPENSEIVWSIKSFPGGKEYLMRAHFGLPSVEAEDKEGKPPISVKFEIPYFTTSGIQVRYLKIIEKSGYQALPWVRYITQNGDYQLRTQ
UniProt P50995, whole entry, looked up: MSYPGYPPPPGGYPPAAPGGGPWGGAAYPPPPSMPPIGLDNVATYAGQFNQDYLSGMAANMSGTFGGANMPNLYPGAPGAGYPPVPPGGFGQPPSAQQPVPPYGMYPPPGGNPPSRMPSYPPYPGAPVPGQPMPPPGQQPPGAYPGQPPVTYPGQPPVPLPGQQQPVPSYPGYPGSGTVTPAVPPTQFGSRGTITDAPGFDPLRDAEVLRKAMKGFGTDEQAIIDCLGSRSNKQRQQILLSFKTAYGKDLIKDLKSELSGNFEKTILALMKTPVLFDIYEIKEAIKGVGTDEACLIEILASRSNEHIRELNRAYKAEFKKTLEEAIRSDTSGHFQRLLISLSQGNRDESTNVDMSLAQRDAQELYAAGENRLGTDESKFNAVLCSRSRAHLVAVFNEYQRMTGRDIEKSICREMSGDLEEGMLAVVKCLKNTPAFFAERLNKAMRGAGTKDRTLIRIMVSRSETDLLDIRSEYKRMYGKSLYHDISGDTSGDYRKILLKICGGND
UniProt P61204: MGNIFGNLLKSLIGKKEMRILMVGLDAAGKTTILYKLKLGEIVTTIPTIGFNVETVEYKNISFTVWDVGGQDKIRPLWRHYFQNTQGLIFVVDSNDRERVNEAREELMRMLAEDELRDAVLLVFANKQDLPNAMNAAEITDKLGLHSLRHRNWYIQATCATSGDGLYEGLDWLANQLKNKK
UniProt Q6NXT1: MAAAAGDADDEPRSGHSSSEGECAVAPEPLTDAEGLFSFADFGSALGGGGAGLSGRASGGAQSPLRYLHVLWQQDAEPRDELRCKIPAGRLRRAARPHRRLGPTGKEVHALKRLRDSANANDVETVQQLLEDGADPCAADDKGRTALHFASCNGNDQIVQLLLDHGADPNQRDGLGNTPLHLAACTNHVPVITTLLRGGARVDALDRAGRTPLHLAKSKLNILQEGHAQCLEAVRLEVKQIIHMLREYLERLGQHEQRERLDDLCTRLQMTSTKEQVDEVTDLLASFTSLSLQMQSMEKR
UniProt Q9BQD7: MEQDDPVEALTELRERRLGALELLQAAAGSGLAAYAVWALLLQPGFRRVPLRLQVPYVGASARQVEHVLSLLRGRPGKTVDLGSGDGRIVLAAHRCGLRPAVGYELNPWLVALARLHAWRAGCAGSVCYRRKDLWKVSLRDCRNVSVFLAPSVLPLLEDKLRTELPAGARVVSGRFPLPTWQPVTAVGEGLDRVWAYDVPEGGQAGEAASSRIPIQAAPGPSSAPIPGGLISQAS
UniProt Q9Y6B7: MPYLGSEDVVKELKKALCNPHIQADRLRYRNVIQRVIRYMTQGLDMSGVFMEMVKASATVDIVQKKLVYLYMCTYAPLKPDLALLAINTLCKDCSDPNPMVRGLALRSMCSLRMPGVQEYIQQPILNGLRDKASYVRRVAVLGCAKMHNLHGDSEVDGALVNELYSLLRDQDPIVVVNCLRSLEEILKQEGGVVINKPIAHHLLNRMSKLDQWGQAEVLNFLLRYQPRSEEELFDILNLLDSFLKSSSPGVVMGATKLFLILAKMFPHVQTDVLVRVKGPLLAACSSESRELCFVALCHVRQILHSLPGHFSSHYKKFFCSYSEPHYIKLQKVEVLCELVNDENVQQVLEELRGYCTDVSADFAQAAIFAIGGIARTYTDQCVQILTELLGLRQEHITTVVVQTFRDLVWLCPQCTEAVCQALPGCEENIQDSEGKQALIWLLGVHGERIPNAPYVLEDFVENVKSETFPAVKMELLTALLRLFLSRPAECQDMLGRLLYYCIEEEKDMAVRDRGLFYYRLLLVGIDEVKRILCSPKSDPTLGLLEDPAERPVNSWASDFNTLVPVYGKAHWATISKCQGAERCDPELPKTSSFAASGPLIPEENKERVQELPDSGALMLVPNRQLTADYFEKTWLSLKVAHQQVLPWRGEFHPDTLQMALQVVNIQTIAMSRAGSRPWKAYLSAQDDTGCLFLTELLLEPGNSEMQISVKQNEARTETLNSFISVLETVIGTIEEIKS
UniProt P13798: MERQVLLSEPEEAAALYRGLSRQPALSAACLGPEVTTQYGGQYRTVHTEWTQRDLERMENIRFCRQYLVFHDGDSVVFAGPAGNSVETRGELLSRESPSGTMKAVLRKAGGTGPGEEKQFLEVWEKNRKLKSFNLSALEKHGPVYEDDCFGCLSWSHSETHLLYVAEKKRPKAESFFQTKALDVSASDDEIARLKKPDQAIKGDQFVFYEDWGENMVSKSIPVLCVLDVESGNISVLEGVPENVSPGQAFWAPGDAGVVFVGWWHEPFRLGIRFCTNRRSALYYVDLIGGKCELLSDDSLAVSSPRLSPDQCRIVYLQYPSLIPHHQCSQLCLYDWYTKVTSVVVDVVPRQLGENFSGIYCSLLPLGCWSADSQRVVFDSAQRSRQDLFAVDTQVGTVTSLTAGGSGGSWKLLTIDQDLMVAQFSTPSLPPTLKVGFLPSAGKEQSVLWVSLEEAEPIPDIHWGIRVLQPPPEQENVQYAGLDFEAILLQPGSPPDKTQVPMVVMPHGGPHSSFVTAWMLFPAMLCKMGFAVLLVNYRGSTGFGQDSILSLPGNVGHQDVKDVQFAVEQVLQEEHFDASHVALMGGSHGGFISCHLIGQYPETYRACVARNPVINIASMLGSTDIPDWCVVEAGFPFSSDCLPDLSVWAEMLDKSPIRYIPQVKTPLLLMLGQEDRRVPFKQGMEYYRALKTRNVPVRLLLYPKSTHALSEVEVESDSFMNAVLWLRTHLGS
UniProt Q92572: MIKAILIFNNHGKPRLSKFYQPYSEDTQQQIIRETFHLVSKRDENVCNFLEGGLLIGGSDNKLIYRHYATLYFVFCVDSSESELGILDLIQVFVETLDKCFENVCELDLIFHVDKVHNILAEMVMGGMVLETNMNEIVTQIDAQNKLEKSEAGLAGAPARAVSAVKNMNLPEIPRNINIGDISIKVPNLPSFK
UniProt Q9BTT0: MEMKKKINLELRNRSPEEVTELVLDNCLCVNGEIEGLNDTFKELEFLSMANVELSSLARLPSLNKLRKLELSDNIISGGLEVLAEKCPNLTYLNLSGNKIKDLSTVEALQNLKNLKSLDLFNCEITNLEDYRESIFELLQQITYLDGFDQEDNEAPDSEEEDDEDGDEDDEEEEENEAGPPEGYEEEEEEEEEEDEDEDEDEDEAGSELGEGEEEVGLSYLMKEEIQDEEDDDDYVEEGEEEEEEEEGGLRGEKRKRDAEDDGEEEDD
UniProt Q07960: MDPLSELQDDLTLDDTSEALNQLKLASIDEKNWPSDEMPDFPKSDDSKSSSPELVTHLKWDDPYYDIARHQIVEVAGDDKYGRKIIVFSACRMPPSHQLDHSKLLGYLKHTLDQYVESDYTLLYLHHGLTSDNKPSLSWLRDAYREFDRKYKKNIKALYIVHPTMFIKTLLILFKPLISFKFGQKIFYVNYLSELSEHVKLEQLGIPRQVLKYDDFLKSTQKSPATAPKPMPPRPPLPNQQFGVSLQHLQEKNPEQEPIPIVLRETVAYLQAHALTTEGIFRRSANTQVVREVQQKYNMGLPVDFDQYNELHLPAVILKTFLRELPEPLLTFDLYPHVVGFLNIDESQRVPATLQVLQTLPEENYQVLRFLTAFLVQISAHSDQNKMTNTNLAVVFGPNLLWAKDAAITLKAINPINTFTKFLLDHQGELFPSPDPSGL

Key:
Assay in all cases: log2 fold change, soluble protein after heating vs DMSO (PISA); higher = thermal stabilisation; K562 cells, 10 uM, 30 min; active = over 0.2 and 3.5 SD of the protein, either way, in both replicates (recomputed)
[1] = compound: CN1CCN(CCOc2cc(OC3CCOCC3)c3c(Nc4c(Cl)ccc5c4OCO5)ncnc3c2)CC1 [saracatinib]
How it was run: (§1)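 K562 cells at 2×10^6 cells/mL were exposed to 10 μM compound for 30 min, then aliquots were heated for 3 min across 48°C-58°C, pooled, and extracted in PBS containing 0.5% NP-40 at 4°C. The supernatant after 21,000xg for 90 min was taken as soluble protein and measured by TMTpro 16plex LC-MS/MS with channel sums equalised. Thermal stability is reported relative to control samples, with values from duplicates. Fold changes are given on a log2 scale.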

[2] = compound: CN1CCN(c2nc(C3=C(c4c[nH]c5ccccc45)C(=O)NC3=O)c3ccccc3n2)CC1 [sotrastaurin]
How it was run: as §1

[3] = compound: CN1CC[C@H](c2c(O)cc(O)c3c(=O)cc(-c4ccccc4Cl)oc23)[C@H](O)C1 [alvocidib]
How it was run: as §1

[4] = compound: CN1CCc2c(c3ccccc3n2Cc2ccc(C(=O)NO)cc2)C1 [Tubastatin A]
How it was run: as §1

[5] = compound: CNC(=O)C1=CC=CC=C1NC2=NC(=NC=C2Cl)NC3=C(C=C(C=C3)N4CCOCC4)OC
How it was run: as §1

[6] = compound: CNC(=O)c1ccc(Nc2ncc(C(F)(F)F)c(NCc3nccnc3N(C)S(C)(=O)=O)n2)cc1 [defactinib]
How it was run: as §1

[7] = compound: CNCc1ccc(-c2[nH]c3cc(F)cc4c3c2CCNC4=O)cc1 [rucaparib]
How it was run: as §1

[8] = compound: CNc1nc(-c2ccc3c(N)n[nH]c3c2)cc(N2C[C@@H](C(=O)NC3CCCCC3)CC[C@H]2C)n1
How it was run: as §1

[9] = compound: COC(=O)N[C@@H](C)CNc1nccc(-c2cn(C(C)C)nc2-c2cc(Cl)cc(NS(C)(=O)=O)c2F)n1 [encorafenib]
How it was run: as §1

[10] = compound: COC(=O)[C@H](CCSC)NC(=O)C1=C(C=C(C=C1)NC[C@H](CS)N)C2=CC=CC=C2
How it was run: as §1

[11] = compound: COC1=CC=C(C=C1)CN2C=CC3=C2C=C(C=C3)C(=O)NO
How it was run: as §1

[12] = compound: CON(C)C(=O)N1N=C(c2cc(F)ccc2F)S[C@@]1(CCCN)c1ccccc1 [filanesib]
How it was run: as §1

[13] = compound: CO[C@H]1C[C@@H]2CC[C@@H](C)[C@@](O)(O2)C(=O)C(=O)N2CCCC[C@H]2C(=O)O[C@H]([C@H](C)C[C@@H]2CC[C@H](n3cnnn3)[C@H](OC)C2)CC(=O)[C@H](C)/C=C(\C)[C@@H](O)[C@@H](OC)C(=O)[C@H](C)C[C@H](C)/C=C/C=C/C=C/1C [zotarolimus]
How it was run: as §1

[14] = compound: COc1cc(C(=O)O)ccc1NC(=O)[C@@H]1N[C@@H](CC(C)(C)C)[C@](C#N)(c2ccc(Cl)cc2F)[C@H]1c1cccc(Cl)c1F [idasanutlin]
How it was run: as §1

[15] = compound: COc1cc(Nc2ncc3c(n2)-c2ccc(Cl)cc2C(c2c(F)cccc2OC)=NC3)ccc1C(=O)O [alisertib]
How it was run: as §1

[16] = compound: COc1cc2nc(-c3cc(F)ccc3O)nc(N[C@@H]3CNC[C@H]3C(C)(C)O)c2cc1OC
How it was run: as §1

[17] = compound: COc1cc2ncnc(Nc3ccc(F)c(Cl)c3)c2cc1OCCCN1CCOCC1 [gefitinib]
How it was run: as §1

[18] = compound: COc1cccc2cc(-c3nc([C@H]4CC[C@H](C(=O)O)CC4)n4ncnc(N)c34)[nH]c12
How it was run: as §1

[19] = compound: CS(=O)(=O)CCNCc1ccc(-c2ccc3ncnc(Nc4ccc(OCc5cccc(F)c5)c(Cl)c4)c3c2)o1 [lapatinib]
How it was run: as §1

[20] = compound: CS(=O)(=O)N1CCN(Cc2cc3nc(-c4cccc5[nH]ncc45)nc(N4CCOCC4)c3s2)CC1 [pictilisib]
How it was run: as §1

Measured: log2 fold change

ANXA4 (UniProt P09525)
inactive: [1] -0.077 | [2] 0.02 | [3] -0.078 | [4] 0.004 | [5] 0.09 | [6] -0.081 | [7] -0.02 | [8] 0.038 | [9] 0.03 | [10] 0 | [11] 0.01 | [12] -0.003 | [13] -0.064 | [14] -0.018 | [15] 0.351 | [16] 0.066 | [17] 0.055 | [18] -0.024 | [19] -0.022 | [20] -0.023

ARHGEF18 (UniProt Q6ZSZ5)
inactive: [1] -0.106 | [2] -0.016 | [3] 0.121 | [4] 0.124 | [5] -0.165 | [6] 0.044 | [8] -0.002 | [10] -0.143 | [12] 0.05 | [13] -0.014 | [14] -0.212 | [15] -0.097 | [16] -0.001 | [17] 0.004 | [18] -0.086 | [19] 0.048 | [20] 0.136

ANKHD1 isoform 6 (UniProt Q8IWZ3)
inactive: [1] -0.023 | [2] -0.157 | [3] 0.035 | [4] 0.055 | [5] -0.018 | [6] 0.013 | [7] 0.218 | [8] 0.082 | [9] 0.102 | [10] 0.006 | [11] -0.089 | [12] 0.227 | [13] 0.046 | [14] 0.151 | [15] -0.073 | [16] -0.186 | [17] 0.081 | [18] -0.09 | [19] 0.034 | [20] -0.035

AP1M1 (UniProt Q9BXS5)
inactive: [1] 0.009 | [2] -0.029 | [3] -0.022 | [4] -0.004 | [5] -0.007 | [6] -0.047 | [7] 0.006 | [8] 0.015 | [9] 0.043 | [10] -0.005 | [11] -0.014 | [12] 0.01 | [13] -0.005 | [14] -0.01 | [15] -0.061 | [16] 0.015 | [17] 0.037 | [18] 0.022 | [19] 0.013 | [20] 0.03

ANXA11 (UniProt P50995)
inactive: [1] -0.021 | [2] -0.049 | [3] -0.12 | [4] 0.021 | [5] 0.024 | [6] -0.08 | [7] -0.045 | [8] 0.024 | [9] 0.045 | [10] -0.042 | [11] 0.004 | [12] -0.113 | [13] 0.043 | [14] -0.064 | [15] -0.01 | [16] 0.068 | [17] 0.041 | [18] 0.004 | [19] -0.002 | [20] 0.007

ARF3 (UniProt P61204)
inactive: [1] 0.058 | [2] 0.017 | [3] -0.009 | [4] -0.024 | [5] -0.027 | [6] 0.002 | [7] -0.049 | [8] -0.017 | [9] 0.021 | [10] -0.005 | [11] -0.075 | [12] -0.04 | [13] -0.018 | [14] -0.042 | [15] -0.044 | [16] 0.028 | [17] -0.002 | [18] 0.06 | [19] -0.002 | [20] 0.038

ANKRD54 (UniProt Q6NXT1)
inactive: [1] 0.123 | [2] 0.007 | [3] 0.024 | [4] 0.02 | [5] -0.054 | [6] -0.132 | [7] 0.007 | [8] -0.046 | [9] -0.076 | [10] -0.058 | [11] -0.068 | [12] -0.126 | [13] -0.056 | [14] 0.012 | [15] 0.033 | [16] -0.057 | [17] -0.086 | [18] 0.011 | [19] 0.029 | [20] -0.003

AQR (UniProt O60306)
inactive: [1] -0.022 | [2] -0.071 | [3] 0.076 | [4] 0.053 | [5] -0.002 | [6] -0.202 | [8] 0.031 | [10] -0.036 | [11] 0.145 | [12] 0.22 | [13] 0.083 | [14] 0.02 | [15] -0.147 | [16] 0.108 | [18] 0 | [19] 0.007 | [20] -0.116

ANTKMT (UniProt Q9BQD7)
inactive: [1] 0.016 | [2] 0.066 | [3] -0.037 | [4] -0.149 | [5] -0.158 | [6] -0.164 | [7] 0.153 | [8] -0.004 | [9] -0.061 | [10] -0.016 | [11] 0.105 | [12] -0.197 | [13] 0.011 | [14] 0.036 | [17] 0.078 | [20] 0.246

AP4B1 (UniProt Q9Y6B7)
inactive: [1] 0.022 | [2] -0.343 | [3] -0.158 | [4] 0.113 | [5] -0.054 | [6] -0.052 | [7] 0.091 | [8] 0.24 | [9] 0.297 | [10] -0.027 | [11] 0.036 | [12] -0.165 | [13] 0.159 | [14] -0.105 | [17] 0.069 | [20] -0.081

APEH (UniProt P13798)
inactive: [1] 0.004 | [2] 0.025 | [3] 0.002 | [4] -0.014 | [5] -0.025 | [6] 0.001 | [7] -0.029 | [8] -0.005 | [9] -0.014 | [10] 0.015 | [11] -0.011 | [12] -0.01 | [13] -0.028 | [14] -0.008 | [15] -0.044 | [16] 0.003 | [17] -0.011 | [18] 0.069 | [19] -0.048 | [20] 0.052

AP3S1 (UniProt Q92572)
inactive: [1] -0.012 | [2] -0.022 | [3] -0.024 | [4] 0.056 | [5] -0.027 | [6] 0.002 | [7] -0.011 | [8] 0.045 | [9] 0.055 | [10] -0.039 | [11] 0.019 | [12] 0.037 | [13] -0.027 | [14] -0.006 | [15] -0.006 | [16] 0.077 | [17] -0.012 | [18] -0.043 | [19] -0.008 | [20] -0.026

ANKRD17 (UniProt O75179)
inactive: [1] -0.123 | [2] -0.136 | [3] -0.016 | [4] 0.024 | [5] 0.002 | [6] 0 | [7] 0.235 | [8] 0.031 | [9] 0.034 | [10] 0.021 | [11] 0.003 | [12] 0.182 | [13] 0.004 | [14] 0.083 | [15] 0.487 | [16] 0.106 | [17] 0.076 | [18] -0.134 | [19] -0.032 | [20] 0.016

Looked up one by one from above (two):
ANKRD54 (UniProt Q6NXT1)
inactive: [1] 0.123 | [2] 0.007 | [3] 0.024 | [4] 0.02 | [5] -0.054 | [6] -0.132 | [7] 0.007 | [8] -0.046 | [9] -0.076 | [10] -0.058 | [11] -0.068 | [12] -0.126 | [13] -0.056 | [14] 0.012 | [15] 0.033 | [16] -0.057 | [17] -0.086 | [18] 0.011 | [19] 0.029 | [20] -0.003

ANKHD1 isoform 6 (UniProt Q8IWZ3)
inactive: [1] -0.023 | [2] -0.157 | [3] 0.035 | [4] 0.055 | [5] -0.018 | [6] 0.013 | [7] 0.218 | [8] 0.082 | [9] 0.102 | [10] 0.006 | [11] -0.089 | [12] 0.227 | [13] 0.046 | [14] 0.151 | [15] -0.073 | [16] -0.186 | [17] 0.081 | [18] -0.09 | [19] 0.034 | [20] -0.035

Following part

AP4E1 (UniProt Q9UPM8)
inactive: [1] 0.144 | [2] -0.239 | [3] 0 | [4] 0.041 | [5] -0.101 | [6] -0.075 | [8] -0.165 | [10] 0.037 | [11] -0.068 | [12] 0.081 | [13] 0.128 | [14] 0.006 | [15] 0.054 | [16] -0.067 | [17] 0.153 | [18] 0.038 | [19] 0.14 | [20] 0.016

ARIH1 (UniProt Q9Y4X5)
inactive: [1] 0.055 | [2] 0.058 | [3] 0.011 | [4] -0.039 | [5] 0.001 | [6] 0.001 | [7] -0.023 | [8] -0.018 | [9] -0.007 | [10] 0.022 | [11] 0.043 | [12] -0.015 | [13] 0.008 | [14] -0.036 | [15] 0.008 | [16] 0.001 | [17] -0.026 | [18] 0.025 | [19] -0.036 | [20] 0.021

ANP32E (UniProt Q9BTT0)
inactive: [1] 0.006 | [2] -0.105 | [4] 0.052 | [5] 0.041 | [6] -0.239 | [7] -0.108 | [8] -0.06 | [9] 0.159 | [10] -0.022 | [11] 0.027 | [12] 0.011 | [13] 0.066 | [14] 0.061 | [15] 0.045 | [16] -0.039 | [17] 0.021 | [18] -0.027 | [19] -0.011 | [20] 0.06

ARHGAP1 (UniProt Q07960)
inactive: [1] -0.015 | [2] -0.03 | [4] 0.044 | [5] -0.032 | [6] -0.046 | [7] 0.005 | [8] -0.019 | [9] 0.001 | [10] -0.014 | [11] -0.016 | [12] 0.084 | [13] 0.038 | [14] 0.004 | [15] -0.011 | [16] 0.152 | [17] 0.005 | [18] -0.036 | [19] -0.035 | [20] 0.024
